The values below come from the supplement of paper PMC11732987, “Enantioselective OTUD7B fragment discovery through chemoproteomics screening and high-throughput optimisation” (Communications Chemistry, 2025).

Chains of the proteins cited; added tags and fusions are not shown. Lines headed by an entry give the natural chain unless they say otherwise; changes in a name come on top. Residues count along the entry.
UniProt P07910: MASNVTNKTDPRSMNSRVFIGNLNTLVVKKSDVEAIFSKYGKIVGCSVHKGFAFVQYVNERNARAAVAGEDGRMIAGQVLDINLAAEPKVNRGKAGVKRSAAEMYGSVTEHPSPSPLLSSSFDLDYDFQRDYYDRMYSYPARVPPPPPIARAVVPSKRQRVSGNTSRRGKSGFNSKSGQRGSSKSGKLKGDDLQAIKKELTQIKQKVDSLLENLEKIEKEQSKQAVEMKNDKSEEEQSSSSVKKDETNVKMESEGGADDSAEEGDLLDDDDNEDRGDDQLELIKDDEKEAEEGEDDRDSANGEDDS
UniProt Q9P2D3: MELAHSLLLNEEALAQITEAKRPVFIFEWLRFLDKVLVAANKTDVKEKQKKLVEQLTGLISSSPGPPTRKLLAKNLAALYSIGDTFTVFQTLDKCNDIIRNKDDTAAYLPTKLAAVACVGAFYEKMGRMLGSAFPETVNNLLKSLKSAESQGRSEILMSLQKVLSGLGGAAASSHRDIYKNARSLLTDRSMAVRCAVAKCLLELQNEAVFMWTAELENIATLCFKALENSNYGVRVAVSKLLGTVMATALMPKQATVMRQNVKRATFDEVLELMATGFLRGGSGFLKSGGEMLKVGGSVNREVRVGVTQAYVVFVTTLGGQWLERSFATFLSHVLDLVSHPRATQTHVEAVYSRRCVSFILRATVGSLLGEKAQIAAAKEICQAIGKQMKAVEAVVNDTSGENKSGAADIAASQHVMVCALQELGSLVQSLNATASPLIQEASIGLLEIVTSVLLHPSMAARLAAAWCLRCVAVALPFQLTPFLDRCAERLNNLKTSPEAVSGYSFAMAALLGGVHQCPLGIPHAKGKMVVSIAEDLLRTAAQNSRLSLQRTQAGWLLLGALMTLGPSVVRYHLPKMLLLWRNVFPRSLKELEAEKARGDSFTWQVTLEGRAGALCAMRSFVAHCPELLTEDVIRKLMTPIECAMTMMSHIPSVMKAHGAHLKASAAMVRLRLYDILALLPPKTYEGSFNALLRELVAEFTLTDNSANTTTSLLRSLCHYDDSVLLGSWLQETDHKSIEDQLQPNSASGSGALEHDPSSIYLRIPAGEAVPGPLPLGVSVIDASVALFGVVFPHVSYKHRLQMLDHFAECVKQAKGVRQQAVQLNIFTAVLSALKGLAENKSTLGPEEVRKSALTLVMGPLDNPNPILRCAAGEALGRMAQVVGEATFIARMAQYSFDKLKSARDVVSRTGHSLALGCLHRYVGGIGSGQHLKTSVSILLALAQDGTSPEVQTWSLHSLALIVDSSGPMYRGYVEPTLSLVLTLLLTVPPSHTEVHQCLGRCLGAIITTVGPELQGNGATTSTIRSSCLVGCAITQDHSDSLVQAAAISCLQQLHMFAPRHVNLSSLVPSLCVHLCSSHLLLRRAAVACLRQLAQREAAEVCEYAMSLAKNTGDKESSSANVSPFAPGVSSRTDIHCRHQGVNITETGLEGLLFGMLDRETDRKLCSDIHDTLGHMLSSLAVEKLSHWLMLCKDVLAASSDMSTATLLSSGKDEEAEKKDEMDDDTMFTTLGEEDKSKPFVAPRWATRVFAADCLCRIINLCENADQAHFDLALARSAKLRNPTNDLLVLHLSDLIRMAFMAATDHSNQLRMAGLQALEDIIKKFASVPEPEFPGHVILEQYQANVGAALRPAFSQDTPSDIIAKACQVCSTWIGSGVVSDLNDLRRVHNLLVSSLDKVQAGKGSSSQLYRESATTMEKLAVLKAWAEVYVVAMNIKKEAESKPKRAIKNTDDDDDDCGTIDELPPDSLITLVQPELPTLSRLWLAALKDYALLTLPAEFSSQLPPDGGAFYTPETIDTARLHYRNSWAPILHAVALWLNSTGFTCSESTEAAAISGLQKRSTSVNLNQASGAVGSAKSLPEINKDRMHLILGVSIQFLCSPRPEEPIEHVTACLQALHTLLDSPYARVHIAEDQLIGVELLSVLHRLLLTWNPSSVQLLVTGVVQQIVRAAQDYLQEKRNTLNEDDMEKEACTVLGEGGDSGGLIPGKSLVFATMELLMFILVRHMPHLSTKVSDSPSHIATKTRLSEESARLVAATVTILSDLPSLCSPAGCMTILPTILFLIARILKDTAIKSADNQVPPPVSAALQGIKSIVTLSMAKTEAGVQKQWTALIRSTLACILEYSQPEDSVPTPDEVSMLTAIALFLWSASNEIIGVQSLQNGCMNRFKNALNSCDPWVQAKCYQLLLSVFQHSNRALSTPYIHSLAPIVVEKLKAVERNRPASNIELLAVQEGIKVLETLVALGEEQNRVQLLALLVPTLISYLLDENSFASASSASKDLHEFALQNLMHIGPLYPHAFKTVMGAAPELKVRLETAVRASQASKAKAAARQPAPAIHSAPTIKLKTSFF
UniProt Q96MH2, 1-22: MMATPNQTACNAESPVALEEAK
UniProt Q15751, 1427-1448: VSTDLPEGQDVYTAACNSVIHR
UniProt P52657, whole entry, looked up: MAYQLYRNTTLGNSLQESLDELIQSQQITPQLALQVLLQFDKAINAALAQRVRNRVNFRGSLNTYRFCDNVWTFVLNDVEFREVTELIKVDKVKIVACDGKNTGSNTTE
UniProt Q8WUA4: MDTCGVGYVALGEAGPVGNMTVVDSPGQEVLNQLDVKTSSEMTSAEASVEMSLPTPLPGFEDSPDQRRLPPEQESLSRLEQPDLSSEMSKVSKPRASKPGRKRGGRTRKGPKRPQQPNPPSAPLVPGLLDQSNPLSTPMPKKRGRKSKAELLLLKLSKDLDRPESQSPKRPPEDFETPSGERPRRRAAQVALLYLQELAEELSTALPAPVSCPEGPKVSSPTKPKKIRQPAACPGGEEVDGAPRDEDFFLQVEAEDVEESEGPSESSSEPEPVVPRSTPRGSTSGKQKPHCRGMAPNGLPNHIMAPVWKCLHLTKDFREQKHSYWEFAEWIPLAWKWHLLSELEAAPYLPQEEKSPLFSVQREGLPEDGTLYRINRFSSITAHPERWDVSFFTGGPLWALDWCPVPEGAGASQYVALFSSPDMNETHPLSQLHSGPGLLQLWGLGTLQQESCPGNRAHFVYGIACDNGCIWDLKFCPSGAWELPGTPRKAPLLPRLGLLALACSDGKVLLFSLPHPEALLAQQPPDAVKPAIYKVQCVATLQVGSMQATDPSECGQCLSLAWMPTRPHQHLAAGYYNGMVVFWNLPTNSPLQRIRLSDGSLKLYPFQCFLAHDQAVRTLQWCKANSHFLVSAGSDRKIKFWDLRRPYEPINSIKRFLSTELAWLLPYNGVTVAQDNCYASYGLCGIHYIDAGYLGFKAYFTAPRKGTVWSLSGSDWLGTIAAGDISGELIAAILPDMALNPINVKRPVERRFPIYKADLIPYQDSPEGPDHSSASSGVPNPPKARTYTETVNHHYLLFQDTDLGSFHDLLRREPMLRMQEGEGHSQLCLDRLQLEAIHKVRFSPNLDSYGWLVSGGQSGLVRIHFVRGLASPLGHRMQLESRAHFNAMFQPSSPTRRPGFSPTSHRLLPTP
UniProt Q7Z4H7: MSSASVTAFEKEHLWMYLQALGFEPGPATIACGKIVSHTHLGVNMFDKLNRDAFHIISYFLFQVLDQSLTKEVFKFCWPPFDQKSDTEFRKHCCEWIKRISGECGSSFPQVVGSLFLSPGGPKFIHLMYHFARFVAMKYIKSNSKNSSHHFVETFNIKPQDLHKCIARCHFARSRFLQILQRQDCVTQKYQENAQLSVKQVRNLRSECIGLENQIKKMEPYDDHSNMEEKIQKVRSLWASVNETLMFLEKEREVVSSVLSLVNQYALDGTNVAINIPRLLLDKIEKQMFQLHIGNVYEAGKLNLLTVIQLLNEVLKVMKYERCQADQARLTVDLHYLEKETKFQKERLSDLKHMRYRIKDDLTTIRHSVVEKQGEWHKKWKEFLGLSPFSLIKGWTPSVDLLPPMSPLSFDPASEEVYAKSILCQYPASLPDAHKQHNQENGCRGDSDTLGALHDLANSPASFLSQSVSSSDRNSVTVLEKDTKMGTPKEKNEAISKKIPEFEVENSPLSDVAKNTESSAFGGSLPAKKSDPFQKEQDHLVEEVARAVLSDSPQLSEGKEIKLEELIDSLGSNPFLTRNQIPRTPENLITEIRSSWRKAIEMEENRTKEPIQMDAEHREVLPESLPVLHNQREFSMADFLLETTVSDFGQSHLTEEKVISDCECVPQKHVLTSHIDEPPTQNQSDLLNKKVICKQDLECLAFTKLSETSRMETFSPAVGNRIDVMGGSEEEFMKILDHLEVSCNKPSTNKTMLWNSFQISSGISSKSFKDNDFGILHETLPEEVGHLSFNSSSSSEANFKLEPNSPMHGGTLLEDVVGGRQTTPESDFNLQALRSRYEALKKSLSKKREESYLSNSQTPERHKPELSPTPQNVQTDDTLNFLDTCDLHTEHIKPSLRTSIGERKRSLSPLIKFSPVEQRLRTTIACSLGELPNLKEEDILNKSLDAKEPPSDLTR
UniProt Q9NRZ9: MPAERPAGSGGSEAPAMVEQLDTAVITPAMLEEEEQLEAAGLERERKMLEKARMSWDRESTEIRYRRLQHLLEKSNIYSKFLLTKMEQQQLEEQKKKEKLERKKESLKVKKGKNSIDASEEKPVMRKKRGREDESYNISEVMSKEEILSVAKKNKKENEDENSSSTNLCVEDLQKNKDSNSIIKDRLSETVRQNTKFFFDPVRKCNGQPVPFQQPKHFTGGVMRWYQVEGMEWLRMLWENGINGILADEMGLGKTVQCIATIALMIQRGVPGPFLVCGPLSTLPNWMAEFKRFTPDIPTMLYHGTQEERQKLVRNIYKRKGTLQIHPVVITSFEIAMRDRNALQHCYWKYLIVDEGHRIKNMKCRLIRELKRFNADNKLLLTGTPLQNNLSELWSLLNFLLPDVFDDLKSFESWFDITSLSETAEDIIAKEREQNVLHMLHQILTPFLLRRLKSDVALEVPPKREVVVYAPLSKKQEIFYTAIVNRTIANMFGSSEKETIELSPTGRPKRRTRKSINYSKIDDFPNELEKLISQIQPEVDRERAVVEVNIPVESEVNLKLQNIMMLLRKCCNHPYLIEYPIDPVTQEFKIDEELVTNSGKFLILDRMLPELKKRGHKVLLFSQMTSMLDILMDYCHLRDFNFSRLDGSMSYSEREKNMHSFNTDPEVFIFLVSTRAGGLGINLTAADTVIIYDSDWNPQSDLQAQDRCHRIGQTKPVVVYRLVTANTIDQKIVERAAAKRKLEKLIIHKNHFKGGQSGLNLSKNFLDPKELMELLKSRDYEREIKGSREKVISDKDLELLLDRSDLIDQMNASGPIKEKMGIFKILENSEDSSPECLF
UniProt Q9UKN8: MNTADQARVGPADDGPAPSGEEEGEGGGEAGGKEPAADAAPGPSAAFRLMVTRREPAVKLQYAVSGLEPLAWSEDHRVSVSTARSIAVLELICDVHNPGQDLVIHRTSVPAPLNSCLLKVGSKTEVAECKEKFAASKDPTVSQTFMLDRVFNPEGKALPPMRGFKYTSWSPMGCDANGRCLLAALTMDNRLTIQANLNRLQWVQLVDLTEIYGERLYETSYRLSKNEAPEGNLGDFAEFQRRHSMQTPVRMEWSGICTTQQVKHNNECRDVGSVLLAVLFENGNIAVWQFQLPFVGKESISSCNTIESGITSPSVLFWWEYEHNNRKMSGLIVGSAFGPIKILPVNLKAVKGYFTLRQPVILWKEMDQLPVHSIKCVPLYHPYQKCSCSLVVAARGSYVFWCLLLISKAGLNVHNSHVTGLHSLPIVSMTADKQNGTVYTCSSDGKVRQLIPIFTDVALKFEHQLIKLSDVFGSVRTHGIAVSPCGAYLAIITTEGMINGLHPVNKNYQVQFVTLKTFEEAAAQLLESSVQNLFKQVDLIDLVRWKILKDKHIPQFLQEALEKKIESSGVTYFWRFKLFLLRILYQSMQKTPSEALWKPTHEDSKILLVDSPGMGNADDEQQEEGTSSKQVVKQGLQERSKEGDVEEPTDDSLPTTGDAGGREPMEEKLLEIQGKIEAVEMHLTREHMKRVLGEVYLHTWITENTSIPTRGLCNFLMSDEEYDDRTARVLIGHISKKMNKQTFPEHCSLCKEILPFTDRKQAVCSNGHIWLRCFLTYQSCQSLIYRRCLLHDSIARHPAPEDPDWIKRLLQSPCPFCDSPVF
UniProt O43824: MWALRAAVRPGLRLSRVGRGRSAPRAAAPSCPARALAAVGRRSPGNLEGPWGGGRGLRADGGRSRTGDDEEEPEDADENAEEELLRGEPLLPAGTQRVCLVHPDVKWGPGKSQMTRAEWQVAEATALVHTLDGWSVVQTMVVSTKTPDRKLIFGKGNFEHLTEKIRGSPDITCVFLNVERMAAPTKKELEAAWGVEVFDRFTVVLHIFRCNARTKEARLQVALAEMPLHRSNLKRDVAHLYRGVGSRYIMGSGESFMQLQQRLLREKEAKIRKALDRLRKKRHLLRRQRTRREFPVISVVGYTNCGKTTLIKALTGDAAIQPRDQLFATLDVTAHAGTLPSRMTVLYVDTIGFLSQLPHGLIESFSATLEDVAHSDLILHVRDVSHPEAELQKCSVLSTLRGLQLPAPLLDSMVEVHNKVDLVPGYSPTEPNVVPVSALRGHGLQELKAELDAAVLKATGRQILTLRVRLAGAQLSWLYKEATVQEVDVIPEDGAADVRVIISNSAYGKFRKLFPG
UniProt P51858, 106-126: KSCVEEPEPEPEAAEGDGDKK

The other results are listed elsewhere or left out. The data scatter; read single values as rough.

Compound in one assay: ClCC(=O)N[C@@H]1CCCc2ccccc12
Kind of assay: log2 mean competition ratio of IA-DTB cysteine labelling (DMSO/compound) (log2 ratio); higher = stronger cysteine engagement by compound. As to conditions: 50 µM; treatment time: 4 h; cell line lysate: HEK293T. On the procedure: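 IA-DTB competitive cysteine chemoproteomics in HEK293T RIPA lysate. Lysates were treated with compound 29 or 30 at 50 or 200 µM for 4 h, then IA-DTB (500 µM, 1 h), trypsin-digested, NeutrAvidin-enriched and analysed by diaPASEF. Competition ratio = intensity DMSO / intensity compound (n=4 treated, n=64 DMSO); binding: mean log2 CR ≥ 1 and p ≤ 0.05 plus QC filters. Target is the cysteine site.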
Take HOOK3 C429 (UniProt Q86VS8): the “log2 mean competition ratio” value was 0.0676.

For the target HEATR3 C655 (UniProt Q7Z4Q2), the “log2 mean competition ratio” value was -0.0507.

With H1-7 C53 (UniProt P35367), the “log2 mean competition ratio” value came to 0.0119.

For the target HNRNPC C46 (UniProt P07910), the “log2 mean competition ratio” value came to 0.376.

For HMGXB4 C418 (UniProt Q9UGU5), the “log2 mean competition ratio” value was 0.569.

With HEATR5B C1693 (UniProt Q9P2D3), the “log2 mean competition ratio” value amounted to 0.144.

As for HEXIM2 C10 (UniProt Q96MH2), the “log2 mean competition ratio” value is -0.404.

As to HERC1 C4837 (UniProt Q15751), the “log2 mean competition ratio” value was found to be 0.147.

Turning to HNRNPA1 C175, the “log2 mean competition ratio” value is -0.143.

As to HNRNPM C694, the “log2 mean competition ratio” value is 0.243.

Staying with this assay, now noted: 200 µM; treatment time: 4 h; cell line lysate: HEK293T.
Regarding GTF2E2 C208 (UniProt P29084), the “log2 mean competition ratio” value was 0.139.

For HBS1L C529 (UniProt Q9Y450), the “log2 mean competition ratio” value was -0.0266.

Turning to GTPBP4 C174 (UniProt Q9BZE4), the “log2 mean competition ratio” value came out at 0.146.

Regarding GTF2A2 C98 (UniProt P52657), the “log2 mean competition ratio” value was -0.145.

On to HIRA C1007 (UniProt P54198), for which the “log2 mean competition ratio” value is -0.111.

Turning to GTF3C2 C828 (UniProt Q8WUA4), the “log2 mean competition ratio” value came to 0.104.

For the target HASPIN C762 (UniProt Q8TF76), the “log2 mean competition ratio” value is 0.0962.

Take HMCES C39 (UniProt Q96FZ2): the “log2 mean competition ratio” value is -0.117.

As to HECW2 C224 (UniProt Q9P2P5), the “log2 mean competition ratio” value is -0.032.

As to HAUS6 C208 (UniProt Q7Z4H7), the “log2 mean competition ratio” value was -0.0313.

Turning to HELLS C346 (UniProt Q9NRZ9), the “log2 mean competition ratio” value was 0.145.

As for GTF3C2 C503 (UniProt Q8WUA4), the “log2 mean competition ratio” value came to 0.0164.

As for GTF3C4 C764 (UniProt Q9UKN8), the “log2 mean competition ratio” value stood at 0.381.

Regarding GUF1 C338 (UniProt Q8N442), the “log2 mean competition ratio” value is -0.155.

Consider HDGFL2 C631 (UniProt Q7Z4V5), for which the “log2 mean competition ratio” value amounted to 0.0297.

With GTPBP6 C99 (UniProt O43824), the “log2 mean competition ratio” value was found to be 0.00376.

As for HOXA11 C200, the “log2 mean competition ratio” value is -0.0304.

Consider HDGF C108 (UniProt P51858), for which the “log2 mean competition ratio” value was -0.179.

As to GTF3C1 C1471 (UniProt Q12789), the “log2 mean competition ratio” value was -0.0821.

HERC1 C1442 (UniProt Q15751): the “log2 mean competition ratio” value is -0.145.

HEATR6 C720 (UniProt Q6AI08): the “log2 mean competition ratio” value was 0.105.

On to HADHA C322 (UniProt P40939), for which the “log2 mean competition ratio” value is -0.172.

As to HLTF C942 (UniProt Q14527), the “log2 mean competition ratio” value is 0.297.

As for HECTD4 C3836, the “log2 mean competition ratio” value was -0.0802.

Regarding HASPIN C219 (UniProt Q8TF76), the “log2 mean competition ratio” value was -0.143.

For the target GTSE1 C478 (UniProt Q9NYZ3), the “log2 mean competition ratio” value was found to be 0.0484.

Regarding GTPBP4 C336 (UniProt Q9BZE4), the “log2 mean competition ratio” value was determined as 0.193.

In the case of HOOK3 C429 (UniProt Q86VS8), the “log2 mean competition ratio” value was -0.486.

In the case of HEATR3 C655 (UniProt Q7Z4Q2), the “log2 mean competition ratio” value turned out to be 0.362.

For the target H1-7 C53 (UniProt P35367), the “log2 mean competition ratio” value is -0.0641.

For the target HNRNPC C46 (UniProt P07910), the “log2 mean competition ratio” value is -0.562.

Consider HMGXB4 C418 (UniProt Q9UGU5), for which the “log2 mean competition ratio” value stood at 0.184.

For HEATR5B C1693 (UniProt Q9P2D3), the “log2 mean competition ratio” value is -0.216.

For HEXIM2 C10 (UniProt Q96MH2), the “log2 mean competition ratio” value is -0.0918.

For the target HERC1 C4837 (UniProt Q15751), the “log2 mean competition ratio” value is 0.237.

Consider HNRNPA1 C175, for which the “log2 mean competition ratio” value was -0.0224.

Regarding HNRNPM C694, the “log2 mean competition ratio” value was found to be 0.0192.
